What was measured:
Format in all cases: in vivo
mice [1] = experiment: Maximal Electroshock Seizure (MES) test, mice i.p.
mice [2] = experiment: Subcutaneous Metrazol Seizure threshold (s.c. MET) test, mice i.p.
mice [3] = experiment: Audiogenic Seizure susceptible (AGS) test, mice i.p.
mice [4] = experiment: 6 Hz (minimal clonic seizure) model, mice i.p.
rats = experiment: MES test, rats p.o.

Row | SMILES | MES (PI), Protective Index = MID50/ED50 (mice [1]) | s.c. MET (PI), Protective Index = MID50/ED50 (mice [2]) | AGS (PI), Protective Index = MID50/ED50 (mice [3]) | 6 Hz (PI), Protective Index = MID50/ED50 (mice [4]) | MES (PI) (rats)
1 | CC(CC(N)=O)c1ccc(OC(F)(F)F)cc1 (racemic) [Compound H, 3-[4-(trifluoromethoxy)-phenyl]butyramide] | 2.1 | (1.74) | 7.1 | (2.9) | (>9)
2 | CC(C)(CC(N)=O)c1ccc(Cl)cc1 [Compound A, 3-(4-Chlorophenyl)-3-methylbutyramide] | 2.59 | (2.75) |  | (2.27) | (8.5)
3 | CC(CC(N)=O)c1ccc(C(F)(F)F)cc1 (centres unmarked) [F, 3-[4-(trifluoromethyl)-phenyl]butyramide] | 2.4 | (2.4) | 5 | (2.6) | (>19)
